Test results as given in PubChem BioAssay AID651595 (National Center for Advancing Translational Sciences (NCATS), 2012).
Hit rate of the full screen: of about 1,100 compounds, fewer than 10 were called active. Inconclusive results (about 6%) are left out. The call rests on the fitted dose curve; in most records, active means well fitted cell-killing curve with a large enough effect; inconclusive means small, poorly fitted or top-dose-only effect; inactive means flat fitted curve, though single readings scatter. The list shows a part of the results.

Assay: qHTS of Nrf2 Activators: Hit Validation in Cytotox Assay;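 further: compound exposure lasted 24 hours before the ATP readout; 0% is about no effect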
Conditions: Cell viability counter-screen for Nrf2 activator hits; series mostly up to 46.1 µM; activity change, negative = cytotoxicity: at the top concentration
Method in brief: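 AREc32_fluc cells plated overnight, then treated at 7 concentrations for 24 h at 37 °C. Viability from intracellular ATP by CellTiter-Glo luminescence after 30 min at room temperature; cytotoxic compounds flagged active.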

Question: With `Cc1cc(N2CCOCC2)n2nc(-c3cccc(F)c3)cc2n1` as the compound, how does the “activity change, negative = cytotoxicity” value read?
Answer: The value was inactive: -13.4%.

Question: For `Fc1c(F)c(C(F)(F)F)c(F)c(F)c1N/N=C\c1cccs1`, which “activity change, negative = cytotoxicity” value is on record?
Answer: Its value is inactive: -28.7%.

Question: Which “activity change, negative = cytotoxicity” value does the source give for `COC(=O)c1ccccc1NC(=O)COCc1cc(-c2cccs2)on1` here?
Answer: The value was inactive: -21.2%.

Question: With `Nc1ccccc1N1C(=O)c2cccc3cccc(c23)C1=O` as the compound, how does the “activity change, negative = cytotoxicity” value read?
Answer: The value was inactive: 6.65%.

Question: For `N/C(=N\OC(=O)c1cccc2ccccc12)c1cccnc1`, which “activity change, negative = cytotoxicity” value is on record?
Answer: The value was inactive: 3.66%.

Question: For `Cn1c(=O)c(C(=O)NNC(=O)c2ccccc2F)c(O)c2ccccc21`, which “activity change, negative = cytotoxicity” value is on record?
Answer: Its value is inactive: -4.83%.

Question: With `N#C/C(=C\c1cccc([N+](=O)[O-])c1)c1ccccn1` as the compound, how does the “activity change, negative = cytotoxicity” value read?
Answer: Its value is inactive: 5.15%.

Question: Which “activity change, negative = cytotoxicity” value does the source give for `CC(/C=C/c1ccco1)=N\NC(=O)CNc1ccc2ccccc2c1` here?
Answer: The value was inactive: -2.77%.

Question: For `COc1ccc(O)c(-c2cc(-c3ccc(F)cc3)n[nH]2)c1`, which “activity change, negative = cytotoxicity” value is on record?
Answer: Its value is inactive: 2.95%.

Question: For `Cc1ccc(-c2nc(NCc3ccco3)c3ccccc3n2)cc1`, which “activity change, negative = cytotoxicity” value is on record?
Answer: Its value is inactive: -1.85%.

Question: For `O=[N+]([O-])c1ccccc1C=CC=NN=Cc1ccccc1O`, which “activity change, negative = cytotoxicity” value is on record?
Answer: Its value is inactive: -2.17%.

Question: For `Cc1nc(C)c(C(=O)N/N=C/c2ccco2)s1`, which “activity change, negative = cytotoxicity” value is on record?
Answer: Its value is inactive: 7.03%.

Question: Which “activity change, negative = cytotoxicity” value does the source give for `CSc1nsc(SC)c1NC(=O)Nc1ccccn1` here?
Answer: The value was inactive: -2.47%.

Question: Which “activity change, negative = cytotoxicity” value does the source give for `COc1ccccc1NC(=O)/C=C\c1ccco1` here?
Answer: The value was inactive: 2.45%.

Question: With `O=C(Nc1cccnc1)C1(F)C(F)(F)C(F)(F)C(F)(F)C(F)(F)C1(F)F` as the compound, how does the “activity change, negative = cytotoxicity” value read?
Answer: The value was inactive: -2.35%.

Question: Which “activity change, negative = cytotoxicity” value does the source give for `Cc1ccc(S(=O)(=O)c2nc(S(C)(=O)=O)sc2N2CCC(O)CC2)cc1` here?
Answer: The value was inactive: 3.03%.

Question: With `Clc1ccc(C=Cc2ccccn2)c(Cl)c1` as the compound, how does the “activity change, negative = cytotoxicity” value read?
Answer: Its value is inactive: -2.5%.

Question: Which “activity change, negative = cytotoxicity” value does the source give for `Cc1ccccc1NC(=O)/C(C#N)=C\c1ccsc1` here?
Answer: The value was inactive: -2.53%.

Question: For `CSc1ccc(-c2cc(=O)c3ccccc3o2)cc1`, which “activity change, negative = cytotoxicity” value is on record?
Answer: Its value is inactive: 1.34%.

Question: With `O=C(NC(=S)Nc1cc([N+](=O)[O-])ccc1Cl)c1ccccc1` as the compound, how does the “activity change, negative = cytotoxicity” value read?
Answer: Its value is inactive: 2.33%.

Question: With `Cc1nc(-c2ccccn2)sc1C(=O)Nc1ccc(F)cc1` as the compound, how does the “activity change, negative = cytotoxicity” value read?
Answer: The value was inactive: 7.45%.

Question: Which “activity change, negative = cytotoxicity” value does the source give for `COc1cccc(C(=O)Oc2ccccc2/C=C\C(=O)c2cc3ccccc3o2)c1` here?
Answer: The value was inactive: -28.6%.

Question: For `O=[N+]([O-])c1ccccc1N/N=C/c1c[nH]c2ccccc12`, which “activity change, negative = cytotoxicity” value is on record?
Answer: Its value is inactive: -6%.

Question: With `Cc1[nH]c2ccccc2c1N=Nc1ccccc1F` as the compound, how does the “activity change, negative = cytotoxicity” value read?
Answer: The value was inactive: -1.48%.

Question: For `C[C@H]1CCC[C@]2(C)C[C@H]3OC(=O)C(CN4CCCCCC4)[C@H]3C=C12` (stereo not given in full), which “activity change, negative = cytotoxicity” value is on record?
Answer: The value was inactive: 25.1%.

Question: Which “activity change, negative = cytotoxicity” value does the source give for `O=C(c1ccc(S(=O)(=O)Cc2ccccc2Cl)c([N+](=O)[O-])c1)N1CCOCC1` here?
Answer: The value was inactive: 1.45%.

Question: With `CCOc1ccc(Br)cc1-c1noc(-c2cccs2)n1` as the compound, how does the “activity change, negative = cytotoxicity” value read?
Answer: Its value is inactive: 3.28%.

Question: For `O=C(COCc1cc(-c2cccs2)on1)Nc1cc(Cl)ccc1O`, which “activity change, negative = cytotoxicity” value is on record?
Answer: Its value is inactive: 4.39%.

Question: For `CCC/C(=N\NC(=O)c1ccco1)c1ccc(Cl)s1`, which “activity change, negative = cytotoxicity” value is on record?
Answer: The value was inactive: 3.26%.

Question: For `CCc1nc(Nc2cccc(F)c2)c2oc3ccccc3c2n1`, which “activity change, negative = cytotoxicity” value is on record?
Answer: The value was inactive: -5.98%.

Question: With `O=C(CCCc1ccccc1)Nc1cccc([N+](=O)[O-])c1` as the compound, how does the “activity change, negative = cytotoxicity” value read?
Answer: Its value is inactive: 3.05%.

Question: Which “activity change, negative = cytotoxicity” value does the source give for `CSc1nc(N)nc(SCC(=O)c2ccccc2)c1C#N` here?
Answer: The value was inactive: -2.92%.

Question: Which “activity change, negative = cytotoxicity” value does the source give for `O=C(Nc1ccccc1)Nc1cccc2nsnc12` here?
Answer: Its value is inactive: 0.0404%.

Question: For `COc1ccc(OC)c(C=C2CCc3ccccc3C2=O)c1`, which “activity change, negative = cytotoxicity” value is on record?
Answer: The value was inactive: 1.45%.

Question: With `Cc1ccc(NC(=O)/C=C/c2ccc([N+](=O)[O-])s2)cc1` as the compound, how does the “activity change, negative = cytotoxicity” value read?
Answer: Its value is inactive: 3.69%.

Question: Which “activity change, negative = cytotoxicity” value does the source give for `CCOc1c(Br)cc(C(N)=O)cc1OCc1ccccc1` here?
Answer: The value was inactive: 5.51%.

Question: For `O=C(CCN1CCC(c2ccccc2)C1)c1ccc2c(c1)OCCO2` (stereo not given), which “activity change, negative = cytotoxicity” value is on record?
Answer: Its value is inactive: 11.4%.

Question: For `CCOc1ncccc1C(=O)NNC(=O)c1ccc(NS(=O)(=O)c2cccs2)cc1`, which “activity change, negative = cytotoxicity” value is on record?
Answer: Its value is inactive: 5.04%.

Question: For `Cc1ccccc1C(=O)Nc1nc2c(C)csc2c(=O)s1`, which “activity change, negative = cytotoxicity” value is on record?
Answer: The value was inactive: -13.3%.

Question: Which “activity change, negative = cytotoxicity” value does the source give for `Cc1cccc(NC(=S)NC(=O)c2ccc(Br)o2)c1` here?
Answer: Its value is inactive: 2.96%.

Question: Which “activity change, negative = cytotoxicity” value does the source give for `Cn1c(=O)oc2cc(NC(=O)CCl)ccc21` here?
Answer: The value was inactive: -15.3%.

Question: With `N#C/C(=C\c1ccccc1[N+](=O)[O-])c1nc(C2CC2)cs1` as the compound, how does the “activity change, negative = cytotoxicity” value read?
Answer: Its value is inactive: 2.2%.

Question: With `Cc1ccc2cccc(NC(=S)NC(=O)c3ccccc3)c2n1` as the compound, how does the “activity change, negative = cytotoxicity” value read?
Answer: Its value is inactive: -0.972%.

Question: Which “activity change, negative = cytotoxicity” value does the source give for `Cc1cccc(N=C2NC(=O)S/C2=C\c2ccco2)c1` here?
Answer: Its value is inactive: -0.442%.

Question: For `Cc1ccc(-n2nc3c([n+]2[O-])CCc2c-3no[n+]2[O-])cc1`, which “activity change, negative = cytotoxicity” value is on record?
Answer: The value was inactive: -3.03%.

Question: Which “activity change, negative = cytotoxicity” value does the source give for `O=C(COC(=O)c1cc2ccccc2cc1O)Nc1ccccc1F` here?
Answer: The value was inactive: -11.3%.

Question: For `COc1ccc(OC)c2sc(NC(=O)CCS(=O)(=O)c3ccccc3)nc12`, which “activity change, negative = cytotoxicity” value is on record?
Answer: The value was inactive: -0.64%.

Question: With `COC1=C(C)C(O)=C(C(=O)/C=C/c2ccccc2)C(=O)C1(C)C` as the compound, how does the “activity change, negative = cytotoxicity” value read?
Answer: The value was inactive: 2.03%.

Question: Which “activity change, negative = cytotoxicity” value does the source give for `COc1ccccc1C(=O)COC(=O)c1cccs1` here?
Answer: The value was inactive: 7.14%.

Question: For `CN1CCN(CCCNC(=O)c2cc3c(=O)n(C)c4ccccc4c3s2)CC1`, which “activity change, negative = cytotoxicity” value is on record?
Answer: Its value is inactive: -0.777%.

Question: Which “activity change, negative = cytotoxicity” value does the source give for `Clc1cccc(/C=N\Nc2nccs2)c1` here?
Answer: Its value is inactive: 6.97%.

Question: With `Cc1ccc(CC2S/C(=N/N=C/c3ccco3)NC2=O)cc1` (stereo not given) as the compound, how does the “activity change, negative = cytotoxicity” value read?
Answer: The value was inactive: -8.32%.

Question: Which “activity change, negative = cytotoxicity” value does the source give for `O=C(NC1CCCCC1)N(c1ccccc1)c1nnc(-c2cccc([N+](=O)[O-])c2)s1` here?
Answer: The value was inactive: 3.91%.

Question: With `COc1ccc(COc2ccsc2C(=O)Nc2ccc(Cl)cc2)cc1` as the compound, how does the “activity change, negative = cytotoxicity” value read?
Answer: The value was inactive: -18.8%.

Question: For `O=[N+]([O-])c1cc(Cl)cc2c1nc(NCCO)c1ccccc12`, which “activity change, negative = cytotoxicity” value is on record?
Answer: Its value is inactive: -0.426%.

Question: With `S=c1[nH]nc(-c2ccco2)n1/N=C/c1cccc(Cl)c1Cl` as the compound, how does the “activity change, negative = cytotoxicity” value read?
Answer: The value was inactive: 3.26%.

Question: With `Cc1ccc(CNC(=O)c2sccc2-n2cccc2)cc1` as the compound, how does the “activity change, negative = cytotoxicity” value read?
Answer: Its value is inactive: -0.271%.

Question: With `N#C/C(=C(/O)c1ccco1)c1nc2ccccc2s1` as the compound, how does the Potency read?
Answer: The Potency was “inactive”.

Question: Which “activity change, negative = cytotoxicity” value does the source give for `CN(C)CCCn1c2c3ccccc3ccc2c2oc(=O)c3ccccc3c21` here?
Answer: Its value is inactive: -8.29%.

Question: Which “activity change, negative = cytotoxicity” value does the source give for `Cc1ccc(NC(=O)c2cc(=O)c3ccccc3o2)cc1` here?
Answer: The value was inactive: -3.33%.

Question: For `COc1ccc([N+](=O)[O-])cc1C1NN=C(c2ccccc2O)S1` (stereo not given), which “activity change, negative = cytotoxicity” value is on record?
Answer: The value was inactive: -3.67%.

Question: With `O=C(CSc1nccc(-c2cccs2)n1)Nc1cccc(Cl)c1` as the compound, how does the “activity change, negative = cytotoxicity” value read?
Answer: The value was inactive: 7.52%.

Question: With `Cn1c(NCc2ccc3occc3c2)nc2cc(-c3cccc(C(F)(F)F)c3)sc2c1=O` as the compound, how does the “activity change, negative = cytotoxicity” value read?
Answer: The value was inactive: -17.7%.

Question: With `Brc1cc(Br)c2nc(-c3cccs3)ccc2c1` as the compound, how does the “activity change, negative = cytotoxicity” value read?
Answer: The value was inactive: 5.71%.

Question: With `CCOC(=O)c1cnc(-c2ccccc2)nc1-c1ccccc1` as the compound, how does the “activity change, negative = cytotoxicity” value read?
Answer: The value was inactive: 9.35%.

Question: With `COc1ccc2oc3ccccc3c(=O)c2c1` as the compound, how does the “activity change, negative = cytotoxicity” value read?
Answer: The value was inactive: -0.325%.

Question: With `CCNc1nc(NCC)nc(N(C)/N=C/c2ccco2)n1` as the compound, how does the “activity change, negative = cytotoxicity” value read?
Answer: The value was inactive: 5.02%.

Question: With `O=C(CCN1C(=O)/C(=C/c2ccccc2)SC1=S)N1CCCCCC1` as the compound, how does the “activity change, negative = cytotoxicity” value read?
Answer: Its value is inactive: 1.54%.

Question: For `O=C(N/N=C/c1ccc(-c2cccc([N+](=O)[O-])c2)o1)c1cccs1`, which “activity change, negative = cytotoxicity” value is on record?
Answer: The value was inactive: -2.3%.

Question: With `O=c1[nH]c(/C(Cl)=C/c2cc(Cl)ccc2O)nc2cc(Cl)ccc12` as the compound, how does the “activity change, negative = cytotoxicity” value read?
Answer: Its value is inactive: -1.06%.

Question: Which “activity change, negative = cytotoxicity” value does the source give for `O=C(CSc1nc2cc(Cl)ccc2s1)c1ccco1` here?
Answer: Its value is inactive: 3.79%.

Question: For `CCn1c(=O)c([N+](=O)[O-])c(NCc2ccco2)c2ccccc21`, which “activity change, negative = cytotoxicity” value is on record?
Answer: Its value is inactive: 2.57%.

Question: For `Cc1ccc(C(=O)OCc2c(C)noc2C)cc1NC(=O)c1ccco1`, which “activity change, negative = cytotoxicity” value is on record?
Answer: The value was inactive: -1.28%.

Question: With `c1ccc(-c2noc(-c3cccnc3)n2)cc1` as the compound, how does the “activity change, negative = cytotoxicity” value read?
Answer: Its value is inactive: 0.858%.

Question: For `Cc1cc(C)n2nc(/C(C#N)=C/c3ccccn3)c(C#N)c2n1`, which “activity change, negative = cytotoxicity” value is on record?
Answer: The value was inactive: -18.6%.
